Results are given in words; binding and its absence hold for the method and conditions named.
Molecular target: T1, human small EDRK-rich factor 1a (SERF1a) (human)
T1 chain: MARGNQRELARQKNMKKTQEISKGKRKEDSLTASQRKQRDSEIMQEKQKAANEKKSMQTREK
Assay: SEC-SWAXS (size-exclusion column with small- and wide-angle X-ray scattering, UV-Vis absorption and dRI); single-component samples (SERF1a 4.1 mg/ml; Htt-1 10 mg/ml injected, diluted ca. 2-4 fold on the column); sodium phosphate buffer pH 7.4; 283 K; aggregation number from zero-angle intensity I0 and the concentration from optical data; both purified
Details: remark: other sources report otherwise

B1: human small EDRK-rich factor 1a (SERF1a) (protein)
chain: MARGNQRELARQKNMKKTQEISKGKRKEDSLTASQRKQRDSEIMQEKQKAANEKKSMQTREK
  binding: no binding (tested: 4.1 mg ml^-1 injected)

Reference: article PMC11364024
